# Reference: article PMC3498211
# These are yes or no findings as the source states them, for the method shown. In cells and extracts the contact can be indirect. Some binding calls cover weakened binding; strength is not graded here. Sequences can lack the tags named with a protein.
# T1: GST-tagged rat full-length ACBD3 (acyl-CoA binding domain containing 3) (rat) (UniProt Q7TNY6)
# T1 sequence: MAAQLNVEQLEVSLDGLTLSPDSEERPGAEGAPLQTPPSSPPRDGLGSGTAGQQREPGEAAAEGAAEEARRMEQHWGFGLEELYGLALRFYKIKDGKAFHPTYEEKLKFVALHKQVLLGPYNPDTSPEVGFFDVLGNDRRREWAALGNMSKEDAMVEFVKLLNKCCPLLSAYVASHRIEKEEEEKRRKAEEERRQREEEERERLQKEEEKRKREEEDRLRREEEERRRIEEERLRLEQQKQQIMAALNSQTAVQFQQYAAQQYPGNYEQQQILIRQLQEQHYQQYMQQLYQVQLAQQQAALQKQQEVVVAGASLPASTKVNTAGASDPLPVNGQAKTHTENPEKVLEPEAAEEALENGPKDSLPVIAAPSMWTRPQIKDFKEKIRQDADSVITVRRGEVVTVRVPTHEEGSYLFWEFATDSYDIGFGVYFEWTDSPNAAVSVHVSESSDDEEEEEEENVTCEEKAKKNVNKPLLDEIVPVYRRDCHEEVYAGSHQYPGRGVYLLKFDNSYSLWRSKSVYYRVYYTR
# T2: SREBP cleavage-activating protein (SCAP) (UniProt P97260)
# T2 sequence: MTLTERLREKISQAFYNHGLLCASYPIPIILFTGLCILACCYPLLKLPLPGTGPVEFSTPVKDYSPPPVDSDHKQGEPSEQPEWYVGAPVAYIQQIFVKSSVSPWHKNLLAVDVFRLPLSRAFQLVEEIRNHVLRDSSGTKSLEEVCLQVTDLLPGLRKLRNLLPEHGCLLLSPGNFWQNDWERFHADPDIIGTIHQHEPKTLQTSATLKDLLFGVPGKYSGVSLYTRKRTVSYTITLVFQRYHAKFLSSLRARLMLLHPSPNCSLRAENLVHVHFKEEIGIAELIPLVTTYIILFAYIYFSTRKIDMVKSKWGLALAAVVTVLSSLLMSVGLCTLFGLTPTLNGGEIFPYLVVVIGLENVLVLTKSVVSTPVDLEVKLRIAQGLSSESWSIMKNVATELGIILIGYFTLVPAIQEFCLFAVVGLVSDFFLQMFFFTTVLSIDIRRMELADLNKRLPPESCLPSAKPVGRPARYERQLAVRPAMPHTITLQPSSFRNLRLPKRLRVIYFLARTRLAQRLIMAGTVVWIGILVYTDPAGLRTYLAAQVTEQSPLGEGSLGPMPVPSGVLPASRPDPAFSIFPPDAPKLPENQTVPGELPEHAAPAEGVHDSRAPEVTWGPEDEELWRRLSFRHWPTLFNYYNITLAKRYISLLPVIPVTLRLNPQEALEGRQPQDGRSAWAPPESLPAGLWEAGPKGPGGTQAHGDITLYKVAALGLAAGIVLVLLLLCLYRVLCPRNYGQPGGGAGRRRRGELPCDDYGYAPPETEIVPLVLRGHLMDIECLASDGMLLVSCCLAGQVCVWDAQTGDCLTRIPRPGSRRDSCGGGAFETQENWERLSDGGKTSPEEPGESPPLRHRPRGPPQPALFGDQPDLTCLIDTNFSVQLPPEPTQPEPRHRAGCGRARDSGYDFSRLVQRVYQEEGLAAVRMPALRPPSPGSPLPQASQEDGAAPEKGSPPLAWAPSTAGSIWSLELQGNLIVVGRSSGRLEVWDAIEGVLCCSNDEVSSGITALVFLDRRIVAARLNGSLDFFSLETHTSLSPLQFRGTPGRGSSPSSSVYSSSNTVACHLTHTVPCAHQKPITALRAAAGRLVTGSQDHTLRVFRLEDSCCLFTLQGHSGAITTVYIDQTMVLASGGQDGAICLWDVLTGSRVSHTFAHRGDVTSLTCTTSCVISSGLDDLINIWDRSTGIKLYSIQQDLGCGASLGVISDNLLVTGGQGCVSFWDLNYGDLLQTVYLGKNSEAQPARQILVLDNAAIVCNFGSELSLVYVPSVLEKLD
# B1: Myc-tagged human SREBP1A full length (1-1147) (protein, UniProt P36956-1 1-1147)
# chain: MDEPPFSEAALEQALGEPCDLDAALLTDIEDMLQLINNQDSDFPGLFDPPYAGSGAGGTDPASPDTSSPGSLSPPPATLSSSLEAFLSGPQAAPSPLSPPQPAPTPLKMYPSMPAFSPGPGIKEESVPLSILQTPTPQPLPGALLPQSFPAPAPPQFSSTPVLGYPSPPGGFSTGSPPGNTQQPLPGLPLASPPGVPPVSLHTQVQSVVPQQLLTVTAAPTAAPVTTTVTSQIQQVPVLLQPHFIKADSLLLTAMKTDGATVKAAGLSPLVSGTTVQTGPLPTLVSGGTILATVPLVVDAEKLPINRLAAGSKAPASAQSRGEKRTAHNAIEKRYRSSINDKIIELKDLVVGTEAKLNKSAVLRKAIDYIRFLQHSNQKLKQENLSLRTAVHKSKSLKDLVSACGSGGNTDVLMEGVKTEVEDTLTPPPSDAGSPFQSSPLSLGSRGSGSGGSGSDSEPDSPVFEDSKAKPEQRPSLHSRGMLDRSRLALCTLVFLCLSCNPLASLLGARGLPSPSDTTSVYHSPGRNVLGTESRDGPGWAQWLLPPVVWLLNGLLVLVSLVLLFVYGEPVTRPHSGPAVYFWRHRKQADLDLARGDFAQAAQQLWLALRALGRPLPTSHLDLACSLLWNLIRHLLQRLWVGRWLAGRAGGLQQDCALRVDASASARDAALVYHKLHQLHTMGKHTGGHLTATNLALSALNLAECAGDAVSVATLAEIYVAAALRVKTSLPRALHFLTRFFLSSARQACLAQSGSVPPAMQWLCHPVGHRFFVDGDWSVLSTPWESLYSLAGNPVDPLAQVTQLFREHLLERALNCVTQPNPSPGSADGDKEFSDALGYLQLLNSCSDAAGAPAYSFSISSSMATTTGVDPVAKWWASLTAVVIHWLRRDEEAAERLCPLVEHLPRVLQESERPLPRAALHSFKAARALLGCAKAESGPASLTICEKASGYLQDSLATTPASSSIDKAVQLFLCDLLLVVRTSLWRQQQPPAPAPAAQGTSSRPQASALELRGFQRDLSSLRRLAQSFRPAMRRVFLHEATARLMAGASPTRTHQLLDRSLRRRAGPGGKGGAVAELEPRPTRREHAEALLLASCYLPPGFLSAPGQRVGMLAEAARTLEKLGDRRLLHDCQQMLMRLGGGTTVTSS
# B2: Insulin induced gene 1 protein (Insig1) (protein, UniProt O15503 1-277)
# chain: MPRLHDHFWSCSCAHSARRRGPPRASAAGLAAKVGEMINVSVSGPSLLAAHGAPDADPAPRGRSAAMSGPEPGSPYPNTWHHRLLQRSLVLFSVGVVLALVLNLLQIQRNVTLFPEEVIATIFSSAWWVPPCCGTAAAVVGLLYPCIDSHLGEPHKFKREWASVMRCIAVFVGINHASAKLDFANNVQLSLTLAALSLGLWWTFDRSRSGLGLGITIAFLATLITQFLVYNGVYQYTSPDFLYIRSWLPCIFFSGGVTVGNIGRQLAMGVPEKPHSD
# B3: Myc-tagged human SREBP1A nuclear mature form (1-490) (domain or fragment, UniProt P36956-1 1-490)
# chain: MDEPPFSEAALEQALGEPCDLDAALLTDIEDMLQLINNQDSDFPGLFDPPYAGSGAGGTDPASPDTSSPGSLSPPPATLSSSLEAFLSGPQAAPSPLSPPQPAPTPLKMYPSMPAFSPGPGIKEESVPLSILQTPTPQPLPGALLPQSFPAPAPPQFSSTPVLGYPSPPGGFSTGSPPGNTQQPLPGLPLASPPGVPPVSLHTQVQSVVPQQLLTVTAAPTAAPVTTTVTSQIQQVPVLLQPHFIKADSLLLTAMKTDGATVKAAGLSPLVSGTTVQTGPLPTLVSGGTILATVPLVVDAEKLPINRLAAGSKAPASAQSRGEKRTAHNAIEKRYRSSINDKIIELKDLVVGTEAKLNKSAVLRKAIDYIRFLQHSNQKLKQENLSLRTAVHKSKSLKDLVSACGSGGNTDVLMEGVKTEVEDTLTPPPSDAGSPFQSSPLSLGSRGSGSGGSGSDSEPDSPVFEDSKAKPEQRPSLHSRGMLDRSRLAL
# Key:
# [1] = target: T1, GST-tagged rat full-length ACBD3 (acyl-CoA binding domain containing 3) (rat); experiment: pull-down; GST-ACBD3 expressed in HEK293T alone or with Myc-hSREBP1A (full length or 1-490), 48 hr; lysis in Buffer A (100 mM Tris pH 7.4, 150 mM NaCl, 1% Triton X-100, 15% glycerol); 400 ug lysate protein on Glutathione 4B sepharose beads overnight at 4 C; immunoblot (the paper calls it immunoprecipitation)
# [2] = target: T2, SREBP cleavage-activating protein (SCAP); experiment: co-IP; GST-ACBD3, Myc-hSREBP1 (full length) and SCAP co-expressed in HEK293T, 48 or 72 hr; lysis in Buffer B (50 mM HEPES-KOH pH 7.4, 100 mM NaCl, 1.5 mM MgCl2, 0.1% NP-40); anti-SCAP antibody overnight at 4 C, TrueBlot anti-rabbit IP beads; immunoblot; with or without GST-ACBD3
Binder,binding [1],binding [2]
B1,binds,binds
B2,–,binds
B3,no binding,–
